# The full ranking holds about 1,700 compounds; the median of “T2 sensor activation Q score (MG/GFP ratio z-score vs DMSO controls)” is about 0.3, and the highest 2% start at about 1.9. This is one part of the list.
# System: ppGalNAc-T2 sensor
# Assay: T2 sensor activation Q score (MG/GFP ratio z-score vs DMSO controls) (SD units); higher = more sensor activation (inhibition of ppGalNAc-T2 glycosylation)
# Conditions: HEK293 sensor cells; 10 µM; 6 h
# Experimental: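 Cells were treated with compound at 10 uM for 6 h, then MG/GFP ratio was read by flow cytometry (10,000 cells per well, duplicate wells). Q = (R - R_neg)/SD_neg relative to DMSO vehicle controls; the signal rises when the glycosyltransferase is inhibited.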
row,SMILES,T2 sensor activation Q score
1,O=C(Nc1ccc(Cl)cc1)c1cc2c(cc1O)[nH]c1ccccc12,1.6
2,O=C(O)c1nn(-c2ccccc2-c2n[nH]c(=O)[nH]c2=O)c(=O)[nH]c1=O,-0.75
3,S=C1SCN(CCc2ccccc2)CN1CCc1ccccc1,1.15
4,O=[N+]([O-])c1cc([N+](=O)[O-])c2cccnc2c1O,-0.5
5,CN(C)S(=O)(=O)c1ccc(N)c([N+](=O)[O-])c1,1.1
6,[O-][n+]1ccc(CC(O)(C(F)(F)F)C(F)(F)F)cc1,1.2
7,Cn1cnc([N+](=O)[O-])c1S(=O)(=O)Oc1cccc2ccccc12,0.3
8,Oc1ccccc1-c1nnco1,-0.35
9,CCCCNCC1CCCO1 (stereo unspecified),0
10,Cc1ccc(-c2cc(C(F)(F)F)nn2-c2ccc(S(N)(=O)=O)cc2)cc1,-2.3
11,Oc1c(CN2CCN(c3ccccc3)CC2)cc(Br)c2cccnc12,0.4
12,CC(C)N(C(=O)c1cccc([N+](=O)[O-])c1)C(C)C,-1.5
13,CCC(C)(C)c1ccc(Oc2cccc(C(=O)O)c2)cc1,1.5
14,Oc1c(Cl)cc(Cl)cc1C1Nc2ccccc2-n2cccc21 (stereo unspecified),-0.25
15,CC(C=CC1(O)C(C)=CC(=O)CC1(C)C)=CC(=O)O (stereo unspecified),-1.25
16,Nc1ncnc2c1ncn2C1OC(CO)C(O)C1N (stereo unspecified),0.2
17,CCc1cccc2[nH]c3cc([N+](=O)[O-])ccc3c12,-2.4
18,CCC1=C(c2ccc(OC)cc2)CCC(C(=O)O)C1C (stereo unspecified),1.15
19,NC1=C(O)C(=O)C(c2ccccc2)O1 (stereo unspecified),1.65
20,CC(C)COC(=O)NC1c2ccccc2Oc2ccccc21,0.95
21,N#CC(c1ccccc1)C(C/C(=N\O)c1ccccc1)c1ccccc1 (stereo unspecified),-0.8

# Pulled by compound from above:
row,SMILES,T2 sensor activation Q score
13,CCC(C)(C)c1ccc(Oc2cccc(C(=O)O)c2)cc1,1.5
4,O=[N+]([O-])c1cc([N+](=O)[O-])c2cccnc2c1O,-0.5
8,Oc1ccccc1-c1nnco1,-0.35
3,S=C1SCN(CCc2ccccc2)CN1CCc1ccccc1,1.15
21,N#CC(c1ccccc1)C(C/C(=N\O)c1ccccc1)c1ccccc1 (stereo unspecified),-0.8

# Later entries

row,SMILES,T2 sensor activation Q score
1,CNC(=O)c1nn(C)c(=O)[nH]c1=O,0.2
2,Cn1c(=S)c2[nH]c(SCCN3CCCC3)nc2n(C)c1=O,0.6
3,Cc1cc(=O)[nH]c(N)n1,0.6
4,C[C@]12CC[C@@H]3c4ccc(O)cc4C[C@@H](CCCCCCCCC[S+]([O-])CCCC(F)(F)C(F)(F)F)[C@H]3[C@@H]1CC[C@@H]2O (stereo partly specified),-1.55
5,CCN(c1ccccc1)c1nc(Cl)nc2c1cnn2C,1.15
6,Nc1nc(=S)c2ncn(C3CCCC3)c2[nH]1,-0.45
7,C#CC1(N2CCCCC2)CCCCC1,0.8
8,CC(=O)OCC1OC(COC(C)=O)(c2ccc(C)cc2)C(OC(C)=O)C1OC(C)=O (stereo unspecified),0.15
9,Nc1ccc(N=Nc2ccc(O)cc2)c(N)n1,1.4
10,CCOC(=O)c1ccc(Nc2sc(C(=O)c3cccc([N+](=O)[O-])c3)c(N)c2C#N)cc1,-0.4
11,Cc1csc(N=Nc2ccc(N(C)C)cc2)[n+]1[O-],0.4
12,C=CCNC(=S)N1CCN(c2ccccc2Cl)CC1,0.1
13,CCOP(=O)(OCC)/C(C#N)=C/c1ccc([N+](=O)[O-])cc1,2.3
14,Nc1ncnc2c([C@@H]3O[C@H](CO)[C@@H](O)[C@H]3O)c[nH]c12,0
15,c1ccc(-c2nnc3oc(-c4cccs4)nn23)cc1,-1.05
16,S=c1[nH]c2ccccc2c2ccccc12,1.95
17,O=C(CC1C=Cc2ccccc2N1C(=O)c1ccccc1)c1ccccc1 (stereo unspecified),-0.45
18,Cc1cc(=O)n2[nH]c(-c3ccc(C(C)(C)C)cc3)cc2n1,0.15
19,CCc1nc(NC(C)(C)C)c2cnn(-c3ccccc3)c2n1,-0.5
20,O=P(O)(O)C(O)(Cn1ccnc1)P(=O)(O)O,-0.2
21,Nc1ccccc1Sc1cc(Cl)nnc1Cl,-0.05

row,SMILES,T2 sensor activation Q score
1,O=C(O)c1ccccc1C(=O)Nc1cccc([N+](=O)[O-])c1,-1.25
2,CC(=O)Nc1ccc2cc3ccc(NC(C)=O)cc3nc2c1,-0.95
3,O=C(CCBr)N1CCN(C(=O)CCBr)CC1,-2.3
4,Clc1c(Cl)c(Cl)c2n[nH]nc2c1Cl,0.2
5,CNC(=O)c1ccc(N2C(=S)N(c3ccc(C#N)c(C(F)(F)F)c3)C(=O)C2(C)C)cc1F,-1.45
6,c1ccc2c(c1)nnn2-c1ccncc1,-0.1
7,Cc1nnsc1C(=O)NCc1c(F)cccc1Cl,-0.3
8,NCC(=O)Nc1ccc(Cl)cc1C(=O)c1ccc[nH]1,-1
9,CCCCCCCCCC[C@H](C(=O)O)[C@]1(C(=O)O)CCC(=O)O1,-0.8
10,CCOc1ccc(/C=C2\CCc3ccccc3C2=O)cc1,0.5
11,O=C(O)c1cc(N2C(=O)C=CC2=O)cc(N2C(=O)C=CC2=O)c1,1.6
12,Oc1ccc2c(ccc3[nH]cnc32)c1,-0.05
13,CSc1ncc2[nH]c(C(O)c3ccccc3)nc2n1 (stereo unspecified),-0.45
14,CCOC(=O)Nc1ccc2nc(-c3cscn3)[nH]c2c1,-0.45
15,CCOC(=O)c1c[nH][nH]c1=O,1.9
16,Oc1ccc(Cc2ccccc2Cl)c(O)c1,1.95
17,c1ccc(-n2nnnc2-c2cccc3ccccc23)cc1,0.05
18,O=C(Nc1ccc(F)cc1)Oc1ccc[nH]c1=O,-0.25
19,Cn1c(=O)c2c(ncn2CCOC(=O)C(C)(C)Oc2ccc(Cl)cc2)n(C)c1=O,-1.4

# Reference: the supplement of paper PMC5407854, “Inhibitor of ppGalNAc-T3-mediated O-glycosylation blocks cancer cell invasiveness and lowers FGF23 levels” (eLife, 2017)
